Assay [1] has as its target human band 3 anion transporter (human) (UniProt P02730). Briefly: cryo-EM structure; detergent-solubilized raw ghost membrane of human RBC reconstituted into MSP1E3D1 nanodiscs (POPC:POPE:POPG), enriched on Superose 6 in 20 mM Tris-HCl pH 7.5, 100 mM NaCl; Build and Retrieve processing; OF-IF and IF-IF dimers.
Assay [2] has the same target. Nature of the assay: cryo-EM structure; detergent-solubilized raw ghost membrane of human RBC reconstituted into MSP1E3D1 nanodiscs (POPC:POPE:POPG), Superose 6 in 20 mM HEPES-NaOH pH 7.5, 100 mM NaHCO3; Build and Retrieve processing; IF-IF, OF-IF and OF-OF dimers.

Drawing on paper PMC11338459, “Cryo-EM structures of the human band 3 transporter indicate a transport mechanism involving the coupled movement of chloride and bicarbonate ions” (PLOS Biology, 2024), this text covers binding for 1 molecule.

Results are given in words; binding and its absence hold for the method and conditions named. Some results given as binding are weak or reduced against the parent protein; the word gives no strength.

B1: human band 3 anion transporter (natural protein, UniProt P02730 1-911, looked up)
chain: MEELQDDYEDMMEENLEQEEYEDPDIPESQMEEPAAHDTEATATDYHTTSHPGTHKVYVELQELVMDEKNQELRWMEAARWVQLEENLGENGAWGRPHLSHLTFWSLLELRRVFTKGTVLLDLQETSLAGVANQLLDRFIFEDQIRPQDREELLRALLLKHSHAGELEALGGVKPAVLTRSGDPSQPLLPQHSSLETQLFCEQGDGGTEGHSPSGILEKIPPDSEATLVLVGRADFLEQPVLGFVRLQEAAELEAVELPVPIRFLFVLLGPEAPHIDYTQLGRAAATLMSERVFRIDAYMAQSRGELLHSLEGFLDCSLVLPPTDAPSEQALLSLVPVQRELLRRRYQSSPAKPDSSFYKGLDLNGGPDDPLQQTGQLFGGLVRDIRRRYPYYLSDITDAFSPQVLAAVIFIYFAALSPAITFGGLLGEKTRNQMGVSELLISTAVQGILFALLGAQPLLVVGFSGPLLVFEEAFFSFCETNGLEYIVGRVWIGFWLILLVVLVVAFEGSFLVRFISRYTQEIFSFLISLIFIYETFSKLIKIFQDHPLQKTYNYNVLMVPKPQGPLPNTALLSLVLMAGTFFFAMMLRKFKNSSYFPGKLRRVIGDFGVPISILIMVLVDFFIQDTYTQKLSVPDGFKVSNSSARGWVIHPLGLRSEFPIWMMFASALPALLVFILIFLESQITTLIVSKPERKMVKGSGFHLDLLLVVGMGGVAALFGMPWLSATTVRSVTHANALTVMGKASTPGAAAQIQEVKEQRISGLLVAVLVGLSILMEPILSRIPLAVLFGIFLYMGVTSLSGIQLFDRILLLFKPPKYHPDVPYVKRVKTWRMHLFTGIQIICLAVLWVVKSTPASLALPFVLILTVPLRRVLLPLIFRNVELQCLDADDAKATFDEEEGRDEYDEVAMPV
modifications: N-linked N-acetylglucosamine (NAG) at N642
notes: band 3 anion transporter (AE1), human erythrocyte form of 911 amino acids, encoded by SLC4A1; endogenous protein from ghost membranes; the model of each subunit holds residues 372-888 except 743-751; Native protein from a crude membrane extract, identified from the cryo-EM maps (Build and Retrieve, Model Angelo); PC and PIP2 lipids lie at the subunit interface; also called band 3 transporter; …
With B1, the binding result in assay [1] and in assay [2] was “binds” throughout.
